Data published in PubChem BioAssay AID248 (DTP/NCI, 2004).
The list shows only some results of the screen, not a fair sample: it gathers tests that were run many times, whatever their T/C, doses with no T/C, and many T/C values between a quarter and a half above the control. Other doses and runs of a compound stand elsewhere. T/C is the treated group as % of the vehicle group. Some doses have a count of surviving animals in place of a T/C: the source holds a T/C of zero for them, seemingly a mark for toxic or unscored doses. Some doses without a T/C left all or most animals alive at the check, yet need not have been tolerated: the source hardly ever lists a survival T/C far under the control, and the zero likely stands for such cases as well. Survivors were counted at the toxicity check, usually on the fifth day, unless a day is given; later deaths do not show. Schedules are NCI's codes, read here as Q, the interval in days (D) or hours (H), X, the number of doses. Some entries were tested several times; the results are listed from low to high. Where survival is the endpoint, this PubChem deposit counts one and a half times the control or more as active, and values a quarter to a half above the control carry no call in these data; other NCI protocols may use other cut-offs. Some T/C values are followed by the survivors on the day toxicity was checked, most often the fifth; without a count, all were alive then.

Tested on: L1210 leukemia ip in BDF1 mice, survival T/C
Assay: NCI In Vivo Anticancer Drug Screen. Data for tumor model L1210 Leukemia (intraperitoneal) in B6D2F1 (BDF1) mice
Details: higher T/C = longer survival
[1] = T/C endpoint: mean survival time, dose: 200.0 mg/kg/injection, schedule: Q04DX003 (ip), vehicle: saline
[2] = T/C endpoint: mean survival time, dose: 400.0 mg/kg/injection, schedule: Q04DX003 (ip), vehicle: saline
[3] = T/C endpoint: mean survival time, dose: 100.0 mg/kg/injection, schedule: Q01DX009 (ip), vehicle: saline
[4] = T/C endpoint: mean survival time, dose: 100.0 mg/kg/injection, schedule: Q01DX009 (ip), vehicle: Klucel (hydroxypropylcellulose) (HPC)
[5] = T/C endpoint: mean survival time, dose: 200.0 mg/kg/injection, schedule: Q01DX009 (ip), vehicle: Klucel (hydroxypropylcellulose) (HPC)
[6] = T/C endpoint: mean survival time, dose: 200.0 mg/kg/injection, schedule: Q01DX009 (ip), vehicle: saline
[7] = T/C endpoint: mean survival time, dose: 200.0 mg/kg/injection, schedule: Q04DX003 (ip), vehicle: saline with Tween-80
[8] = T/C endpoint: mean survival time, dose: 400.0 mg/kg/injection, schedule: Q04DX003 (ip), vehicle: saline with Tween-80
[9] = T/C endpoint: mean survival time, dose: 300.0 mg/kg/injection, schedule: Q01DX009 (ip), vehicle: saline

In the case of C#CCN1CCCC1, the survivor count (T/C endpoint: mean survival time, dose: 100.0 mg/kg/injection, schedule: Q04DX003 (ip), vehicle: saline) is reported as 5 of 6, the survivor count [1] is reported as 0 of 6 and the survivor count [2] is reported as 0 of 6.
For C=CC1CC[N-]CC1.C=CC1CC[N-]CC1.C=CC1CC[N-]CC1.[Cl][Cr]([Cl])[Cl], the survivor count [3] was 3 of 6.
CC1=CP(=O)(O)CC1 was tested, and the survivor count [2] was 1 of 6.
With Cc1ccnc(N)c1 the survivor count (T/C endpoint: mean survival time, dose: 100.0 mg/kg/injection, schedule: Q04DX002 (ip), vehicle: saline) was 1 of 3, the survivor count (T/C endpoint: mean survival time, dose: 200.0 mg/kg/injection, schedule: Q04DX002 (ip), vehicle: saline) was 0 of 3 and the survivor count (T/C endpoint: mean survival time, dose: 400.0 mg/kg/injection, schedule: Q04DX002 (ip), vehicle: saline) was 0 of 3.
O/N=C1\CCCc2sccc21 was tested, and the survivor count [4] was 6 of 6, the survivor count [5] was 6 of 6 and the survivor count (T/C endpoint: mean survival time, dose: 400.0 mg/kg/injection, schedule: Q01DX009 (ip), vehicle: Klucel (hydroxypropylcellulose) (HPC)) was 4 of 6.
With C1=C[P+](c2ccccc2)(c2ccccc2)CC[P+]1(c1ccccc1)c1ccccc1 the survivor count (T/C endpoint: mean survival time, dose: 300.0 mg/kg/injection, schedule: Q01DX001 (ip), vehicle: other) was 0 of 6.
For O=C(Nc1ccc(Cl)cc1)c1cc([N+](=O)[O-])ccc1O, the T/C (T/C endpoint: mean survival time, dose: 15.2 mg/kg/injection, schedule: Q02DX010 (ip), vehicle: carboxymethylcellulose (CMC)) was 143 % of control.
COc1ccc(C(=O)C(Br)C(Br)C(=O)O)cc1 (stereo not drawn) was tested, and the survivor count [6] was 2 of 6, the survivor count [7] was 1 of 6 and 3 of 6 and the survivor count [1] was 3 of 6. The survivor count [8] was 0 of 6 and the survivor count [2] was 2 of 6 and 3 of 6.
O=C(NO)Oc1cccc2ccccc12 was tested, and the survivor count (T/C endpoint: mean survival time, dose: 100.0 mg/kg/injection, schedule: Q04DX002 (ip), vehicle: saline with Tween-80) was 3 of 3, the survivor count (T/C endpoint: mean survival time, dose: 200.0 mg/kg/injection, schedule: Q04DX002 (ip), vehicle: saline with Tween-80) was 3 of 3 and the survivor count (T/C endpoint: mean survival time, dose: 400.0 mg/kg/injection, schedule: Q04DX002 (ip), vehicle: saline with Tween-80) was 2 of 3.
In the case of CCCCCCCCC(=O)N1CCC(C)CC1, the survivor count (T/C endpoint: mean survival time, dose: 100.0 mg/kg/injection, schedule: Q04DX002 (ip), vehicle: Klucel (hydroxypropylcellulose) (HPC)) is reported as 3 of 3.
CC(C)C1CCC(NC(=O)Nc2ccccc2)CC1 (stereo not drawn) was tested, and the survivor count [7] was 6 of 6 and the survivor count [8] was 0 of 6.
C=CC12COC(=O)C(=C)C1C1OC(=O)C(=C)C1C(O)C2 (stereo not drawn) was tested, and the survivor count (T/C endpoint: mean survival time, dose: 10.0 mg/kg/injection, schedule: Q01DX009 (ip), vehicle: saline + alcohol) was 3 of 6, the survivor count (T/C endpoint: mean survival time, dose: 12.0 mg/kg/injection, schedule: Q01DX009 (ip), vehicle: saline) was 2 of 6 and the survivor count (T/C endpoint: mean survival time, dose: 20.0 mg/kg/injection, schedule: Q01DX009 (ip), vehicle: saline + alcohol) was 0 of 6.
In the case of Cc1ccc(NC(=O)N(CCCl)N=O)cc1C, the T/C (T/C endpoint: mean survival time, dose: 3.0 mg/kg/injection, schedule: Q01DX001 (ip), vehicle: carboxymethylcellulose (CMC)) is reported as 126 % of control, the T/C (T/C endpoint: mean survival time, dose: 12.0 mg/kg/injection, schedule: Q01DX001 (ip), vehicle: carboxymethylcellulose (CMC)) is reported as 147 % of control and the T/C (T/C endpoint: mean survival time, dose: 20.0 mg/kg/injection, schedule: Q01DX009 (ip), vehicle: carboxymethylcellulose (CMC)) is reported as 139 % of control. For the same compound, the survivor count (T/C endpoint: mean survival time, dose: 29.0 mg/kg/injection, schedule: Q01DX009 (ip), vehicle: carboxymethylcellulose (CMC)) was 3 of 6, the survivor count (T/C endpoint: mean survival time, dose: 44.0 mg/kg/injection, schedule: Q01DX009 (ip), vehicle: carboxymethylcellulose (CMC)) was 6 of 6 and the survivor count (T/C endpoint: mean survival time, dose: 66.0 mg/kg/injection, schedule: Q01DX009 (ip), vehicle: carboxymethylcellulose (CMC)) was 4 of 6. The survivor count (T/C endpoint: mean survival time, dose: 100.0 mg/kg/injection, schedule: Q01DX009 (ip), vehicle: carboxymethylcellulose (CMC)) was 0 of 6, the survivor count (T/C endpoint: mean survival time, dose: 150.0 mg/kg/injection, schedule: Q01DX001 (ip), vehicle: carboxymethylcellulose (CMC)) was 4 of 6 and the survivor count (T/C endpoint: mean survival time, dose: 200.0 mg/kg/injection, schedule: Q01DX001 (ip), vehicle: carboxymethylcellulose (CMC)) was 1 of 4. The survivor count (T/C endpoint: mean survival time, dose: 400.0 mg/kg/injection, schedule: Q01DX001 (ip), vehicle: carboxymethylcellulose (CMC)) was 0 of 4.
With NC(=O)c1cn(C2OC(CO)C(O)C2O)c2nc(Cl)nc(N)c12 (stereo not drawn) the survivor count (T/C endpoint: mean survival time, dose: 50.0 mg/kg/injection, schedule: Q01DX009 (ip), vehicle: saline) was 4 of 6, the T/C (T/C endpoint: mean survival time, dose: 50.0 mg/kg/injection, schedule: Q04DX003 (ip), vehicle: saline) was 148 % of control and the survivor count [3] was 6 of 6. For the same compound, the survivor count [6] was 0 of 6, the T/C [1] was 148 % of control [5 of 6 alive] and the survivor count [9] was 0 of 6. For the same compound, the survivor count [2] was 1 of 6.
For OC(CCN1CCCCC1)(c1cccs1)C(O)(CCN1CCCCC1)c1cccs1 (stereo not drawn), the survivor count (T/C endpoint: mean survival time, dose: 400.0 mg/kg/injection, schedule: Q01DX001 (ip), vehicle: saline) was 0 of 6.
NCCc1ccc(O)c(O)c1 was tested, and the T/C [4] was 131 % of control [5 of 6 alive], the T/C [3] was 128 % of control and the T/C (T/C endpoint: mean survival time, dose: 100.0 mg/kg/injection, schedule: Q03HX004 (ip), vehicle: saline) was 128 % of control [4 of 6 alive]. For the same compound, the T/C [5] was 127 % of control, the T/C [6] was 133 and 146 % of control and the T/C (T/C endpoint: mean survival time, dose: 200.0 mg/kg/injection, schedule: Q04HX003 (ip), vehicle: saline) was 126 % of control [5 of 6 alive]. The T/C [9] was 131 % of control, the T/C (T/C endpoint: mean survival time, dose: 400.0 mg/kg/injection, schedule: Q01DX009 (ip), vehicle: saline) was 127 % of control and the T/C (T/C endpoint: mean survival time, dose: 400.0 mg/kg/injection, schedule: Q04HX003 (ip), vehicle: saline) was 125 % of control. The survivor count (T/C endpoint: mean survival time, dose: 1200.0 mg/kg/injection, schedule: Q01DX009 (ip), vehicle: saline) was 2 of 6, the T/C (T/C endpoint: median survival time, dose: 80.0 mg/kg/injection, schedule: Q12HX018 (ip), vehicle: saline) was 126 % of control [9 of 10 alive] and the T/C (T/C endpoint: median survival time, dose: 160.0 mg/kg/injection, schedule: Q01DX009 (ip), vehicle: saline) was 132 % of control. The T/C (T/C endpoint: median survival time, dose: 160.0 mg/kg/injection, schedule: Q02DX005 (ip), vehicle: saline) was 125 % of control, the T/C (T/C endpoint: median survival time, dose: 160.0 mg/kg/injection, schedule: Q04HX020 (ip), vehicle: saline) was 128 % of control and the T/C (T/C endpoint: median survival time, dose: 160.0 mg/kg/injection, schedule: Q11DX017 (ip), vehicle: saline) was 129 % of control. The T/C (T/C endpoint: median survival time, dose: 160.0 mg/kg/injection, schedule: Q12HX010 (ip), vehicle: saline) was 129 % of control, the T/C (T/C endpoint: median survival time, dose: 160.0 mg/kg/injection, schedule: Q12HX018 (ip), vehicle: saline) was 126 % of control [8 of 10 alive] and the T/C (T/C endpoint: median survival time, dose: 320.0 mg/kg/injection, schedule: Q01DX009 (ip), vehicle: saline) was 137 % of control. The T/C (T/C endpoint: median survival time, dose: 320.0 mg/kg/injection, schedule: Q04HX020 (ip), vehicle: saline) was 134 % of control [8 of 10 alive], the T/C (T/C endpoint: median survival time, dose: 320.0 mg/kg/injection, schedule: Q11DX017 (ip), vehicle: saline) was 140 % of control and the T/C (T/C endpoint: median survival time, dose: 320.0 mg/kg/injection, schedule: Q12HX010 (ip), vehicle: saline) was 136 % of control. For the same compound, the T/C (T/C endpoint: median survival time, dose: 320.0 mg/kg/injection, schedule: Q12HX018 (ip), vehicle: saline) was 134 % of control [8 of 10 alive], the T/C (T/C endpoint: median survival time, dose: 640.0 mg/kg/injection, schedule: Q01DX009 (ip), vehicle: saline) was 130 % of control and the T/C (T/C endpoint: median survival time, dose: 640.0 mg/kg/injection, schedule: Q11DX017 (ip), vehicle: saline) was 144 % of control [9 of 10 alive]. For the same compound, the T/C (T/C endpoint: median survival time, dose: 640.0 mg/kg/injection, schedule: Q12HX010 (ip), vehicle: saline) was 136 % of control [8 of 10 alive].
O=S1(=O)C(c2ccccc2)=C1c1ccccc1 was tested, and the survivor count (T/C endpoint: mean survival time, dose: 100.0 mg/kg/injection, schedule: Q01DX001 (ip), vehicle: other) was 0 of 6, the survivor count (T/C endpoint: mean survival time, dose: 200.0 mg/kg/injection, schedule: Q01DX001 (ip), vehicle: other) was 1 of 6 and the survivor count (T/C endpoint: mean survival time, dose: 400.0 mg/kg/injection, schedule: Q01DX001 (ip), vehicle: other) was 0 of 6.
